Source: article PMC4401782
No constants are given. Whether binding was seen depends on the method and setting. In cells and extracts the contact can be indirect. A result given as binding can be weak or reduced; the word gives no strength.

Assays:
[1] = target: RenU.6H, purified recombinant M. smegmatis RenU (added exogenously) (M. smegmatis); experiment: pull-down; exogenous RenU.6H added to M. smegmatis lysates and re-purified; blots with anti-L13 and anti-6H antibodies; 6H.SHMT as control; only the target purified
[2] = target: RenU.6H, purified recombinant M. smegmatis RenU (added exogenously) (M. smegmatis); experiment: pull-down; only the target purified

binding [1]	binding [2]	Binder
binds		50S ribosomal protein L13 of M. smegmatis (endogenous) (protein, UniProt A0QSP8 1-147) MPTYTPKAGDTTRSWYVIDASDVVLGRLASAAATLLRGKHKPTFTPNVDGGDFVIVINADKIAVSGDKLTKKFAYRHSGYPGGLRKRTIGELLEKHPTRVVENAIIGMLPHNKLGRQIQKKLKVYAGPDHPHAAQQPIPFEIKQVAQ
	binds	L13 of M. smegmatis phosphorylated at T11 by PknG (endogenous) (protein, UniProt A0QSP8 1-147, phosphothreonine at 11) MPTYTPKAGDTTRSWYVIDASDVVLGRLASAAATLLRGKHKPTFTPNVDGGDFVIVINADKIAVSGDKLTKKFAYRHSGYPGGLRKRTIGELLEKHPTRVVENAIIGMLPHNKLGRQIQKKLKVYAGPDHPHAAQQPIPFEIKQVAQ
